This is one part of the list.
Tests used:
Assay in all cases: log2 fold change, soluble protein after heating vs DMSO (PISA); higher = thermal stabilisation; K562 lysate, 10 uM; active = over 0.2 and 3.5 SD of the protein, either way, in both replicates (recomputed)
vemurafenib = compound: CCCS(=O)(=O)Nc1ccc(F)c(C(=O)c2c[nH]c3ncc(-c4ccc(Cl)cc4)cc23)c1F [vemurafenib]
Outline: (§1)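 Log-two fold change in thermal stability relative to solvent controls is reported from duplicates. For each sample, crude K562 extract from dounce-homogenised pellets in PBS pH 7.4 with 1 mM MgCl2, at 1 mg/mL protein, was treated with 10 μM compound for 30 min. Aliquots heated for 3 min across 48°C-58°C were pooled, brought to 0.5% NP-40 at 4°C and cleared at 21,000xg for 90 min. The supernatant was quantified by TMTpro 16plex LC-MS/MS with channel sums equalised.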

Protein sequences, listed by entry. Tags and fused reporters are not part of them. Lines headed by an entry give the natural chain unless they say otherwise; changes in a name come on top.
UniProt Q8N5A5: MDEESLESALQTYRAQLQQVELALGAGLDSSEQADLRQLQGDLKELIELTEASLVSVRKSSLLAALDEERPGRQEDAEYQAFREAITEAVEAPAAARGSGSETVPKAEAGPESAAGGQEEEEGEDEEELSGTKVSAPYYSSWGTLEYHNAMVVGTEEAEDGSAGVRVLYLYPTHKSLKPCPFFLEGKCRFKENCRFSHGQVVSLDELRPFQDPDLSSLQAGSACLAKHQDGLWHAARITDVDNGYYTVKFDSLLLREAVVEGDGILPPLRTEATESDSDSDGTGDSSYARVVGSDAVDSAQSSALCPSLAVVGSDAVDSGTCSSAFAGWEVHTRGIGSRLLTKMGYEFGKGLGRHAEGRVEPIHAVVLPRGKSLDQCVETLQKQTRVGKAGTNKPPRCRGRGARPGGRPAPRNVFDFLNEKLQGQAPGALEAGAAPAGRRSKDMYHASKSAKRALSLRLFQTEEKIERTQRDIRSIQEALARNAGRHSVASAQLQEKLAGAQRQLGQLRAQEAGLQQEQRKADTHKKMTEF
UniProt O95070: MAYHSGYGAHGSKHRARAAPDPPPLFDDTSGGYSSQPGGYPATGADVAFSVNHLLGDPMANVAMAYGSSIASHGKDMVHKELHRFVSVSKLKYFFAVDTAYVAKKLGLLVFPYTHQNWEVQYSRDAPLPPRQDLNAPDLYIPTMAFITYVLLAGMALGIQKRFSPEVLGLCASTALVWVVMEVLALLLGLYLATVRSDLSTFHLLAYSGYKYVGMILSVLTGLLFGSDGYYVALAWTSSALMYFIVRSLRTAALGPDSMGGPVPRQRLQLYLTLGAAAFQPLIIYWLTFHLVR
UniProt P63104: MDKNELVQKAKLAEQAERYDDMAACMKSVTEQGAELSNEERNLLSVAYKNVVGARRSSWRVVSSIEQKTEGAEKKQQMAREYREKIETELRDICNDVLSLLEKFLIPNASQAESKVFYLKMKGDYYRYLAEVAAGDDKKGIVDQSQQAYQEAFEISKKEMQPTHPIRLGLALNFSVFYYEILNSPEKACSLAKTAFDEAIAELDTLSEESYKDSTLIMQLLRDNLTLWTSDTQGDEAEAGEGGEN
UniProt Q9C0E2: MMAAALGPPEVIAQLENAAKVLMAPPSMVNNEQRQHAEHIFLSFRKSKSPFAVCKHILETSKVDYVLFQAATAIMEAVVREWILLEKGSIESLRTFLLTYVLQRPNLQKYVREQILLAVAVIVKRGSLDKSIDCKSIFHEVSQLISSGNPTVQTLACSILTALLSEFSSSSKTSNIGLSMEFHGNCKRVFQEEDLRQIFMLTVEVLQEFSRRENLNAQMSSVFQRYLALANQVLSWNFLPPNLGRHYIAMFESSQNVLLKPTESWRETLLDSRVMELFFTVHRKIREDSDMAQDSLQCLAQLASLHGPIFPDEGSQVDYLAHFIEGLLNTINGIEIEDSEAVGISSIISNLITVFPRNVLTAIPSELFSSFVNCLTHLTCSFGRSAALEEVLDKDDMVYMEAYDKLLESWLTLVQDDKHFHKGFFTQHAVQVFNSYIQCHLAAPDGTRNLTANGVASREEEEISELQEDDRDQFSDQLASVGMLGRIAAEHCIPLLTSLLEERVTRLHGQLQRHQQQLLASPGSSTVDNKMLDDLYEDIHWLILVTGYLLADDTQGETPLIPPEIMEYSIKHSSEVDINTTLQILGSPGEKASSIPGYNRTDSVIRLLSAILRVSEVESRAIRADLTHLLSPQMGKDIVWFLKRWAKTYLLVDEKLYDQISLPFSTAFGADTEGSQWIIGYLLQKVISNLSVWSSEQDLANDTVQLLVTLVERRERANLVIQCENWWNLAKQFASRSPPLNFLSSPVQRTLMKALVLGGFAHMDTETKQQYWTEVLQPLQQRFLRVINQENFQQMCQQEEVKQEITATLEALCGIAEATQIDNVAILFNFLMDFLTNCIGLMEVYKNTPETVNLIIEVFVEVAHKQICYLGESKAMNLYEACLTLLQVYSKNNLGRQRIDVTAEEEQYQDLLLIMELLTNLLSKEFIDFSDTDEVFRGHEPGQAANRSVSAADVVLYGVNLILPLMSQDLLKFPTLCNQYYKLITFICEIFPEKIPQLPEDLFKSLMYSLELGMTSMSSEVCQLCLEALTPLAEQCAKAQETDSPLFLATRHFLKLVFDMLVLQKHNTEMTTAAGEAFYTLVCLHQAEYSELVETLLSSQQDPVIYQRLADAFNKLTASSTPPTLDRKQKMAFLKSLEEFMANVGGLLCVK
UniProt Q04917: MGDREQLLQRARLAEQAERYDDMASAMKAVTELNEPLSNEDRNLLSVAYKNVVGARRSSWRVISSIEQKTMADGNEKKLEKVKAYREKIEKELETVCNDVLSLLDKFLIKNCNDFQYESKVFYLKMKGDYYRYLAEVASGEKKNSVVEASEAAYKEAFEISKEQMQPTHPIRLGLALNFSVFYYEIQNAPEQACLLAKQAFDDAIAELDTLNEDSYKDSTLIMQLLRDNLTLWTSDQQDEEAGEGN
UniProt Q8IX07: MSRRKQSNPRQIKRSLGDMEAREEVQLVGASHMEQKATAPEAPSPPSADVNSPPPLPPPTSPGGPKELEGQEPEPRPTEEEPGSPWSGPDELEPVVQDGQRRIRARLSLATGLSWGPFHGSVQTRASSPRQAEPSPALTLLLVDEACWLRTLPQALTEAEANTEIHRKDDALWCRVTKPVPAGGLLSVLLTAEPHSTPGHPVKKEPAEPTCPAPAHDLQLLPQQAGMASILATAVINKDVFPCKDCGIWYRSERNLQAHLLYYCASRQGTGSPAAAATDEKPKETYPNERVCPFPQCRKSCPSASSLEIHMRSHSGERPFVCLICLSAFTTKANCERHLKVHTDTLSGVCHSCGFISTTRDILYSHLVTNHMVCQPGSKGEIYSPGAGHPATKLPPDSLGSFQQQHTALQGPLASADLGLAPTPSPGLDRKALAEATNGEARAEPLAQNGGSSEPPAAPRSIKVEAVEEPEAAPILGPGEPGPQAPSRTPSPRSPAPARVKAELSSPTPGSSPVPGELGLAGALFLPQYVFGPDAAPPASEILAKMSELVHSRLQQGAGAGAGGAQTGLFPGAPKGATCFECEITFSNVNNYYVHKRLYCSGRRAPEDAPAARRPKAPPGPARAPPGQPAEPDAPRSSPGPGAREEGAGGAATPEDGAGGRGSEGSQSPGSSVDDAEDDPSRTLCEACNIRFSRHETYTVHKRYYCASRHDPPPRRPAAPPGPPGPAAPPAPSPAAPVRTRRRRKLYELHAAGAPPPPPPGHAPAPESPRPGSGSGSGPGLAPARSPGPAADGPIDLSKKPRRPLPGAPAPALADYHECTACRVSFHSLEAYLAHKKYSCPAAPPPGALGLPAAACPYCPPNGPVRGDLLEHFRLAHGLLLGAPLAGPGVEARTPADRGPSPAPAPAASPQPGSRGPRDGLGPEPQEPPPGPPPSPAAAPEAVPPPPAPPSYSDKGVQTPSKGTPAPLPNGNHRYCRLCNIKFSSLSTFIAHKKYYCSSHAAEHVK
UniProt Q9NUD5: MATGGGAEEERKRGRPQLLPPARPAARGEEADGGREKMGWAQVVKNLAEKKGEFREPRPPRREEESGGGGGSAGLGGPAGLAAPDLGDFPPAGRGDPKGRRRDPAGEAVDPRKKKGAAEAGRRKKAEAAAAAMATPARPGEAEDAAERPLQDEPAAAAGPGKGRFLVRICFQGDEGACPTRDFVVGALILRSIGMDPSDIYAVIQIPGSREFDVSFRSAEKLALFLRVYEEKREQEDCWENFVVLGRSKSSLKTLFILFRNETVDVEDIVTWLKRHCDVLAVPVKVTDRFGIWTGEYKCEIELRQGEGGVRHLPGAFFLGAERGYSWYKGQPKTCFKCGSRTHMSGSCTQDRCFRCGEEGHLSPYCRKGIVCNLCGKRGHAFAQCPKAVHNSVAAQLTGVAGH
UniProt Q9NUE0: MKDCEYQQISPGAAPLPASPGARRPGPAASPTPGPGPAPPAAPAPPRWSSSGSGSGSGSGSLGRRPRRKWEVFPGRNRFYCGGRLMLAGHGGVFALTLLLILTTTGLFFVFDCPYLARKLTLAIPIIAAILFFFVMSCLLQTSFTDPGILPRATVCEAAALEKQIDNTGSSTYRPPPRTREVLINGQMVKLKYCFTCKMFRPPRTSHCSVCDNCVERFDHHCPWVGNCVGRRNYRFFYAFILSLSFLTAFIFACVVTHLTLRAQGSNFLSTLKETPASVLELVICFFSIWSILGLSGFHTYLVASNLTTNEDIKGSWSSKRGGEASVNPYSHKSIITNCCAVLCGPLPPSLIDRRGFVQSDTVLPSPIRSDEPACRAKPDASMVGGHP
UniProt Q8N567: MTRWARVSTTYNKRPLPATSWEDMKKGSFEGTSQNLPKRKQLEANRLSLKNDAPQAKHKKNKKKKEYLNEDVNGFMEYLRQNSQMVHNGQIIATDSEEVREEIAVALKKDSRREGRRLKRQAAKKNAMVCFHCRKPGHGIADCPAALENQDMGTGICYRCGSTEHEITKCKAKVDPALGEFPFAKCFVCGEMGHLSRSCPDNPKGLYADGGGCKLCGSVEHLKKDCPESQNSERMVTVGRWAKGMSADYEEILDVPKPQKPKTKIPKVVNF
UniProt Q9NP64: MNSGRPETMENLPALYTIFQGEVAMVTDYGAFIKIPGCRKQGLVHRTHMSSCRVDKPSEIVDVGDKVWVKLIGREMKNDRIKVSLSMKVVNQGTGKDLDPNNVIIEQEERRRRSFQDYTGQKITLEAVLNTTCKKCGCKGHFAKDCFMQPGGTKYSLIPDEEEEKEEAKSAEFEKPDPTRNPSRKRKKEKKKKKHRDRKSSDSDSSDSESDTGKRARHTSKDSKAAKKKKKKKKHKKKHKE
UniProt P12956: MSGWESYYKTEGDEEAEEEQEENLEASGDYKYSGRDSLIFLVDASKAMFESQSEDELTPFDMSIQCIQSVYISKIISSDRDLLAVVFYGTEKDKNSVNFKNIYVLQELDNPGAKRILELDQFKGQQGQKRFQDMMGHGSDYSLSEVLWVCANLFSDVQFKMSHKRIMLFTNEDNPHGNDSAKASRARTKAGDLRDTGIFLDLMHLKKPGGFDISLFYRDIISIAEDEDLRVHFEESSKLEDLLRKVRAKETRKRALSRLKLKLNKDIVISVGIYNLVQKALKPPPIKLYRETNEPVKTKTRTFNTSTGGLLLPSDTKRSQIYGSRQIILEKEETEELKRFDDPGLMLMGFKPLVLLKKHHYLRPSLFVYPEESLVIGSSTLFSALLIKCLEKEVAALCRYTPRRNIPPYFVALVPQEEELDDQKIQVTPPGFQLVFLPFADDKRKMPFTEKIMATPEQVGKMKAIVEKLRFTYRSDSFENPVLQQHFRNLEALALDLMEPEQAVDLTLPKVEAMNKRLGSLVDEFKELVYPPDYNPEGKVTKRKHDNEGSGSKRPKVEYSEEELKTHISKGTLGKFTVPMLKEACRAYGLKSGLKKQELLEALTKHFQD
UniProt P67809, whole entry, looked up: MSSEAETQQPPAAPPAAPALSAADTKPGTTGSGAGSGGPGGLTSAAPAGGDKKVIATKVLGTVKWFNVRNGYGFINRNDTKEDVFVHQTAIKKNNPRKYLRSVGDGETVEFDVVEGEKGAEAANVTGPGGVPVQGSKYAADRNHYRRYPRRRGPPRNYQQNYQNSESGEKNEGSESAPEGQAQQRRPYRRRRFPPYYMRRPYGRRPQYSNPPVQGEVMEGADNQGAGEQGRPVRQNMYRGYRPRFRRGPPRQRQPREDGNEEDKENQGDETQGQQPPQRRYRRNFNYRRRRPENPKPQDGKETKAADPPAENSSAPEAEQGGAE
UniProt P61981: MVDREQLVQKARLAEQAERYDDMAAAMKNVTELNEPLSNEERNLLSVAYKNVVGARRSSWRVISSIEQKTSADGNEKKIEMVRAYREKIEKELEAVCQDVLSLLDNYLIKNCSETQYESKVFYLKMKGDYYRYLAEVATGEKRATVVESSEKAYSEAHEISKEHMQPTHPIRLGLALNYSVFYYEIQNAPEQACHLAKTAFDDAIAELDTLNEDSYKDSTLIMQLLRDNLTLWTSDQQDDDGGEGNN
UniProt Q9H5J0: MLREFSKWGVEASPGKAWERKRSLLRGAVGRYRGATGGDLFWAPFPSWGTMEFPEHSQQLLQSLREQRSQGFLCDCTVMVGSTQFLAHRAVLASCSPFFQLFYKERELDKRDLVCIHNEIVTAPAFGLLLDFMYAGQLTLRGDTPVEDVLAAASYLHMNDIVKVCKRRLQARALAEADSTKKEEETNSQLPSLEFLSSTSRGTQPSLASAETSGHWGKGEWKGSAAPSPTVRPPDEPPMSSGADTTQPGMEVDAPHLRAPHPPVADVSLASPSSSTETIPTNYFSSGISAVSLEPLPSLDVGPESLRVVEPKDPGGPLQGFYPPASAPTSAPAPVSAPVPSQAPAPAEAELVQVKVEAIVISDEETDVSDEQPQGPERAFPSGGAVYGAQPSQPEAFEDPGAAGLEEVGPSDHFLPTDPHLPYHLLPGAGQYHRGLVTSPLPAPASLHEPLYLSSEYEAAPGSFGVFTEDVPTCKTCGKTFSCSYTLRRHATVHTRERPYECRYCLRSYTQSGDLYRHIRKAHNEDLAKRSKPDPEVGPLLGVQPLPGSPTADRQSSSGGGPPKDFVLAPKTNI

[1] = compound: CCCS(=O)(=O)Nc1ccc(F)c(C(=O)c2c[nH]c3ncc(Cl)cc23)c1F
Outline: as §1

barasertib = compound: CCN(CCCOc1ccc2c(Nc3cc(CC(=O)Nc4cccc(F)c4)[nH]n3)ncnc2c1)CCOP(=O)(O)O [barasertib]
Outline: as §1

[2] = compound: CC[C@@H]1C(=O)N(C)c2cnc(Nc3ccc(C(=O)NC4CCN(C)CC4)cc3OC)nc2N1C1CCCC1
Outline: as §1

volasertib = compound: CC[C@@H]1C(=O)N(C)c2cnc(Nc3ccc(C(=O)N[C@H]4CC[C@H](N5CCN(CC6CC6)CC5)CC4)cc3OC)nc2N1C(C)C [volasertib]
Outline: as §1

[3] = compound: CCn1c(C(=O)N(C2CC2)C2CC2)cc2c3c(ncn3C)c(Nc3cc(C)n(C)n3)nc21
Outline: as §1

[4] = compound: CCn1cc(-c2ccnc3[nH]c(-c4cccc(CN(C)C)c4)cc23)c(-c2ccc(NC(=O)N(C)C)cc2)n1
Outline: as §1

[5] = compound: CN1CCC(CNc2ccc3ncc(-c4cccc(OC(F)(F)F)c4)n3n2)CC1
Outline: as §1

saracatinib = compound: CN1CCN(CCOc2cc(OC3CCOCC3)c3c(Nc4c(Cl)ccc5c4OCO5)ncnc3c2)CC1 [saracatinib]
Outline: as §1

sotrastaurin = compound: CN1CCN(c2nc(C3=C(c4c[nH]c5ccccc45)C(=O)NC3=O)c3ccccc3n2)CC1 [sotrastaurin]
Outline: as §1

Measured: log2 fold change

XRN1 (UniProt Q8IZH2)
inactive: vemurafenib 0.052 | [1] 0.021 | barasertib -0.012 | [2] -0.131 | volasertib -0.015 | [3] 0.004 | [4] 0.059 | [5] -0.016 | saracatinib -0.026 | sotrastaurin 0.036

ZFR (UniProt Q96KR1)
inactive: vemurafenib 0.057 | [1] 0.027 | barasertib 0.011 | [2] 0.047 | volasertib -0.003 | [3] 0.039 | [4] 0.075 | [5] -0.005 | saracatinib 0.018 | sotrastaurin 0.006

ZGPAT (UniProt Q8N5A5)
inactive: vemurafenib 0.003 | [1] 0.027 | barasertib -0.016 | [2] 0.014 | volasertib 0.036 | [3] 0.005 | [4] 0.012 | [5] 0.013 | saracatinib 0.057 | sotrastaurin 0.073

YIF1A (UniProt O95070)
inactive: vemurafenib -0.041 | [1] -0.097 | barasertib -0.061 | [2] -0.008 | volasertib 0.05 | [3] -0.031 | [4] 0.075 | [5] -0.156 | saracatinib 0.024 | sotrastaurin 0.012

ZC3H18 (UniProt E7ERS3)
inactive: vemurafenib -0.002 | [1] 0.005 | barasertib 0 | [2] -0.004 | volasertib -0.018 | [3] 0.017 | [4] -0.008 | [5] -0.004 | saracatinib 0.043 | sotrastaurin -0.03

ZEB2 (UniProt O60315)
inactive: vemurafenib -0.077 | [1] 0.15 | barasertib 0.277 | [2] 0.013 | volasertib -0.027 | [3] 0.055 | saracatinib -0.052 | sotrastaurin 0.018

YARS2 (UniProt Q9Y2Z4)
inactive: vemurafenib -0.032 | [1] 0.105 | barasertib 0.041 | [2] -0.102 | volasertib -0.015 | [3] -0.003 | [4] -0.018 | [5] 0.075 | saracatinib -0.039 | sotrastaurin 0.043

YWHAZ (UniProt P63104)
inactive: vemurafenib -0.031 | [1] 0.012 | barasertib -0.055 | [2] -0.016 | volasertib 0.015 | [3] -0.016 | [4] -0.005 | [5] 0.045 | saracatinib 0.023 | sotrastaurin -0.032

XPO4 (UniProt Q9C0E2)
inactive: vemurafenib -0.028 | [1] 0.008 | barasertib 0.01 | [2] -0.078 | volasertib -0.035 | [3] 0.049 | [4] -0.08 | [5] 0.055 | saracatinib 0.009 | sotrastaurin 0.022

ZBED1 (UniProt O96006)
inactive: vemurafenib 0.033 | [1] -0.021 | barasertib -0.004 | [2] 0.033 | volasertib -0.067 | [3] -0.016 | [4] 0.001 | [5] -0.042 | saracatinib -0.062 | sotrastaurin -0.042

ZFYVE28 (UniProt Q9HCC9)
inactive: vemurafenib -0.054 | [1] -0.04 | barasertib 0.108 | [2] 0.045 | volasertib 0.259 | [3] -0.024 | [4] -0.033 | [5] 0.056 | saracatinib -0.105 | sotrastaurin 0.029

YWHAH (UniProt Q04917)
inactive: vemurafenib -0.012 | [1] -0.035 | barasertib -0.05 | [2] -0.013 | volasertib 0.004 | [3] -0.005 | [4] 0.21 | [5] -0.083 | saracatinib -0.027 | sotrastaurin 0.019

ZCCHC8 (UniProt Q6NZY4)
inactive: vemurafenib 0.016 | [1] 0.005 | barasertib -0.045 | [2] 0.077 | volasertib -0.011 | [3] -0.002 | [4] 0 | [5] -0.008 | saracatinib 0.014 | sotrastaurin 0.008

ZFPM1 (UniProt Q8IX07)
inactive: vemurafenib 0.088 | [1] 0.007 | barasertib 0.031 | [2] -0.017 | volasertib 0.02 | [3] -0.042 | [4] -0.001 | [5] -0.021 | saracatinib 0.014 | sotrastaurin -0.009

ZCCHC3 (UniProt Q9NUD5)
inactive: vemurafenib -0.003 | [1] 0.019 | barasertib 0.021 | [2] -0.01 | volasertib -0.014 | [3] 0.02 | [4] -0.022 | [5] 0.063 | saracatinib 0.025 | sotrastaurin 0.011

ZDHHC18 (UniProt Q9NUE0)
inactive: vemurafenib 0.043 | [1] 0.026 | barasertib 0.016 | [2] -0.019 | volasertib -0.052 | [3] -0.068 | [4] -0.138 | [5] 0.085 | saracatinib 0.036 | sotrastaurin 0.04

2 entries drawn at random from those above, as already listed:
YWHAH (UniProt Q04917)
inactive: vemurafenib -0.012 | [1] -0.035 | barasertib -0.05 | [2] -0.013 | volasertib 0.004 | [3] -0.005 | [4] 0.21 | [5] -0.083 | saracatinib -0.027 | sotrastaurin 0.019

ZDHHC18 (UniProt Q9NUE0)
inactive: vemurafenib 0.043 | [1] 0.026 | barasertib 0.016 | [2] -0.019 | volasertib -0.052 | [3] -0.068 | [4] -0.138 | [5] 0.085 | saracatinib 0.036 | sotrastaurin 0.04

The list goes on.

ZCCHC9 (UniProt Q8N567)
inactive: vemurafenib -0.088 | [1] 0.011 | barasertib -0.015 | [2] 0.018 | volasertib 0.048 | [3] 0.016 | saracatinib 0.01 | sotrastaurin -0.053

YWHAB (UniProt P31946)
inactive: vemurafenib 0.017 | [1] -0.013 | barasertib -0.025 | [2] 0.049 | volasertib 0.016 | [3] 0.001 | [4] 0.34 | [5] -0.073 | saracatinib 0.001 | sotrastaurin 0.022

ZCCHC17 (UniProt Q9NP64)
inactive: vemurafenib 0.109 | [1] 0.091 | barasertib -0.063 | [2] -0.063 | volasertib -0.044 | [3] 0.036 | [4] 0.058 | [5] -0.07 | saracatinib 0.055 | sotrastaurin -0.14

XRCC6 (UniProt P12956)
inactive: vemurafenib -0.015 | [1] 0.001 | barasertib -0.001 | [2] -0.013 | volasertib -0.01 | [3] -0.004 | [4] 0.011 | [5] -0.046 | saracatinib -0.01 | sotrastaurin 0.004

YTHDC1 (UniProt Q96MU7)
inactive: vemurafenib 0.006 | [1] -0.002 | barasertib -0.063 | [2] 0.085 | volasertib -0.029 | [4] -0.013 | [5] 0.025 | saracatinib 0.086 | sotrastaurin -0.067

YBX1 (UniProt P67809)
inactive: vemurafenib 0.011 | [1] 0.013 | barasertib -0.057 | [2] 0.073 | volasertib 0.015 | [3] -0.034 | [4] 0.124 | [5] -0.082 | saracatinib 0.033 | sotrastaurin 0.053

YWHAG (UniProt P61981)
inactive: vemurafenib -0.037 | [1] -0.02 | barasertib -0.033 | [2] 0.063 | volasertib 0.009 | [3] 0.007 | [4] -0.002 | [5] 0.036 | saracatinib 0.017 | sotrastaurin -0.032

ZBTB3 (UniProt Q9H5J0)
inactive: vemurafenib 0.007 | [1] 0.208 | barasertib -0.023 | [2] 0.068 | volasertib -0.088 | [3] -0.053 | [4] 0.031 | [5] 0.012 | saracatinib 0.06 | sotrastaurin 0.018

YEATS2 (UniProt Q9ULM3)
inactive: vemurafenib 0.053 | [1] 0.183 | barasertib 0.085 | [2] 0.072 | volasertib -0.08 | [3] -0.093 | sotrastaurin 0.074

ZFAND2B (UniProt Q8WV99)
inactive: vemurafenib -0.051 | [1] 0.055 | barasertib -0.024 | [2] -0.045 | volasertib 0.08 | [3] 0.037 | [4] -0.242 | [5] 0.148 | saracatinib -0.085 | sotrastaurin -0.177

Source: the supplement of paper PMC10849652
